Values quoted from earlier work as cited in patent US20160106708A1, “USE OF ANTIOXIDANTS FOR THE TREATMENT OF COGNITIVE AND BEHAVIOURAL DISORDERS IN INDIVIDUALS WITH FRAGILE X SYNDROME” (Servicio Andaluz de Salud, priority 2010, published 2016).
At least one structure is not confirmed: it was looked up by name or label, or the drawing left a doubt.

System: patients with Fragile X syndrome
Details: published trials; cited from earlier work

SMILES	Efficacy on symptoms in patients with Fragile X Syndrome
O=C(c1ccc2nccnc2c1)N1CCCCC1 [CX516]	a certain effectiveness
CN(C)c1ccc(O)c2c1C[C@H]1C[C@H]3[C@H](N(C)C)C(O)=C(C(N)=O)C(=O)[C@@]3(O)C(O)=C1C2=O [minocycline]	significant improvements in behavioural parameters
[Li] [lithium]	efficacy in improving behaviour and learning
